Assay results published in publication PMC2852844, “Anti-Parasitic Compounds from Streptomyces sp. Strains Isolated from Mediterranean Sponges” (Marine Drugs, 2010).

Test: in vitro
Conditions: mouse

Work on `CN[C@@H]1C[C@H]2O[C@@](C)([C@@H]1OC)n1c3ccccc3c3c4c(c5c6ccccc6n2c5c31)C(=O)NC4` [staurosporine] yielded an IC50 of less than 130 nM.
